At least one structure is not confirmed: it was looked up by name or label, or the drawing left a doubt.
Test system: rats
Experiment: Object Recognition Task (episodic memory), 6 hour delay
Description: It is based on rodents' natural preference for exploring novel objects over familiar objects. The experimental protocol is as follows:
The experiment takes place over a total of 4 days. Objects used for testing included square 60-mL clear glass tablet bottles with a black phenolic cap (“bottle”) or […] high, 1¼-inch interior diameter aluminum electrical metal tubing conduit couplings (“conduit”). On the first 3 days, the rat was placed into a test box for 15 minutes of habituation. On the fourth day, two identical copies of the same object were arranged in the box, one in each of the near corners about ½ inch from the walls—two bottles for half of the rats, two conduits for the other half. The rat was brought to the test room, placed in the middle of the box facing the center of the back wall, and allowed to explore the objects for a 3-minute information trial, after which it was returned to its home cage and to the housing room. After a specified delay, one copy of the original object (“familiar,” not the copy already encountered) and one copy of the other object (“novel”) were arranged in the near corners, with positions counterbalanced to avoid bias, and the rat was placed back in the box for a recognition trial. […] The result of scoring is the time spent with the novel object, expressed as a %-age number (the “Recognition Score”)
Normal rats spend more time exploring the novel object, indicating memory for the sample object. Increases in the length of the delay, however, reduce the rat's ability to distinguish between the two objects in the recognition trial. For the testing of cognition-enhancing agents, a delay or inter-trial interval (ITI) is typically chosen at which complete forgetting normally occurs (i.e. where the time spent exploring both the novel and familiar object is equal), as this allows for considerable room for improvement in performance.
Both drugs were administered by intraperitoneal (IP) injection. […]

COc1ccc2c3c1O[C@H]1C[C@@H](O)C=C[C@@]31CCN(C)C2 [galantamine]
memory in the object recognition task (galantamine 0.56 mg/kg IP, 30 min prior, 6 h delay, vs vehicle (p<0.05)): significantly better memory than vehicle | effect on memory in the object recognition task (galantamine 0.1 and 0.3 mg/kg IP, vs vehicle): no significant effect on memory | memory in the object recognition task (galantamine 1 and 1.7 mg/kg IP (p=0.147 and 0.101)): positive trends

Source: patent publication US20050267077A1 (priority 2004, published 2005)
